In publication PMC4309436:
These are yes or no findings as the source states them, for the method shown. In cells and extracts the contact can be indirect. Binding calls can cover weak binding; strength is not graded here. For some assays here: Sequences can lack the tags named with a protein. Each block holds one molecule with its values, some of them ahead of it.

Columns and labels:
[1] = target: T1, HA-tagged full-length MKL1 (UniProt Q8K4J6); assay: co-IP; HA-tagged MKL1 constructs immunoprecipitated from transfected NIH 3T3 lysates with anti-HA affinity gel (0.5% Triton X-100, 50 mM Tris-HCl pH 7.5, 150 mM NaCl); endogenous Ddx19 detected by western blot; empty HA as control
T1 sequence: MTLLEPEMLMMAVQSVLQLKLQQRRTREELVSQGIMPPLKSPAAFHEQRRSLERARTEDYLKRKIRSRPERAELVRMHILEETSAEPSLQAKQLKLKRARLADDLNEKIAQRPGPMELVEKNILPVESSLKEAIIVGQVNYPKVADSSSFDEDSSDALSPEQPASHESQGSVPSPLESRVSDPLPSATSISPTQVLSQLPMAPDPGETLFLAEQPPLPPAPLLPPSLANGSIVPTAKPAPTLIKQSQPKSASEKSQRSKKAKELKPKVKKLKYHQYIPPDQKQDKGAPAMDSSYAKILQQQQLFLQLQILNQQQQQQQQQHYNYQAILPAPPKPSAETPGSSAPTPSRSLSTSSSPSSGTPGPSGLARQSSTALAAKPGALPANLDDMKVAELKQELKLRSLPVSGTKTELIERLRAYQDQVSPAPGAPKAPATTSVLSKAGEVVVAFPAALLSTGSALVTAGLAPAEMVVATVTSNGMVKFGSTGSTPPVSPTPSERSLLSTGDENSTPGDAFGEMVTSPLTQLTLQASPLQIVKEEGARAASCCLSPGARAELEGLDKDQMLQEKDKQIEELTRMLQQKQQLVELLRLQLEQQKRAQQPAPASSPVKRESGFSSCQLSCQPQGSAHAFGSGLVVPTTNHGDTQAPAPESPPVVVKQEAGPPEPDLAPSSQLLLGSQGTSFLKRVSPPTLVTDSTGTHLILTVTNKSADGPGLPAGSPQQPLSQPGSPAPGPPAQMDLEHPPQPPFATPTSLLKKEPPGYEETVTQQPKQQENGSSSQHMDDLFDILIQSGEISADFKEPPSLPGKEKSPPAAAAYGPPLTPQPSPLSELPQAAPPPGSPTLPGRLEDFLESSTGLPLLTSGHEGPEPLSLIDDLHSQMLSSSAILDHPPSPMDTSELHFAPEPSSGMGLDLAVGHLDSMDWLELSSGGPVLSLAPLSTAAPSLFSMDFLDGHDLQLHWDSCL

[2] = target: Ddx19 (endogenous, NIH 3T3) (mouse (endogenous in NIH 3T3)); assay: co-IP; NIH 3T3 cytoplasmic extract (digitonin lysis, 50 mM NaCl, 50 mM Hepes pH 7.4) immunoprecipitated with anti-Ddx19 antibody and magnetic DynaBeads; beads without antibody as control

binding [1]: binds
Molecule: Ddx19 (endogenous, NIH 3T3) (mouse (endogenous in NIH 3T3))

binding [2]: binds
B1: MKL1 (endogenous, NIH 3T3) (protein, UniProt Q8K4J6 1-964)
chain: T1 sequence
